Test results taken from patent US20200291061 (published 2020).
Square brackets hold non-standard residues; d marks the D form. * marks the point of attachment. Trt = c1ccc(C(c2ccccc2)(c2ccccc2)*)cc1; Fmoc = O=C(OCC1c2ccccc2-c2ccccc21)*; NMeA = CN[C@@H](C)C(=O)O; Cbz = O=C(OCc1ccccc1)*; Boc = CC(C)(C)OC(=O)*; OBn = c1ccc(CO*)cc1; Bn = c1ccc(C*)cc1

Legend:
[1] = general procedure: solution-phase peptide synthesis; 1-ethyl-3-(3-dimethylaminopropyl)carbodiimide hydrochloride
[2] = solution-phase peptide synthesis; 1-ethyl-3-(3-dimethylaminopropyl)carbodiimide hydrochloride; conditions: coupling step

| Substance | step yield ([1]; late stage modification step) | step yield ([1]; coupling step) | other results |
| --- | --- | --- | --- |
| Ac-Cys(Trt)-Ala-Arg(Ts)-Arg(Ts)-Arg(Ts)-Ala-Arg(Ts)-OBIBS | 100% | – | – |
| Ac-Cys(Trt)-Ala-Arg(Ts)-Arg(Ts)-Arg(Ts)-Ala-Arg(Ts)-OH | 85% | – | – |
| Boc-Ala-Arg(Ts)-Arg(Ts)-Arg(Ts)-Ala-Arg(Ts)-OBIBS | – | 102% | – |
| Boc-Ala-Ser(Bn)-Phe-Phe-OSi(sBu)2(tBu) | – | 89% | – |
| Boc-Ala-Val-Pro-Phe-OSi(tBu)3 | – | 85% | – |
| Boc-Arg(Ts)-Arg(Ts)-Ala-Arg(Ts)-OBIBS | – | 78% | – |
| Boc-Arg(Ts)-Arg(Ts)-Arg(Ts)-Ala-Arg(Ts)-OBIBS | – | 86% | – |
| Boc-MePhe-MePhe-MePhe-MePhe-OBIBS | – | 90% | – |
| Boc-Phe-Phe-Phe-Phe-OCHCS | – | 94% | – |
| Boc-Phe-Phe-Phe-Phe-OCPCS | – | 91% | – |
| Boc-Phe-Phe-Phe-Phe-OIPBS | – | 89% | – |
| Boc-Phe-Phe-Phe-Phe-OIPCS | – | 81% | – |
| Boc-Phe-Phe-Phe-Phe-OSBCS | – | 96% | – |
| Boc-Phe-Phe-Phe-Phe-OSi(tBu)2(CH2TMS) | – | – | step yield [2]: 99% |
| Cbz-FFAVPF-OH | 88% | – | – |
| Cbz-K(Boc)FFF-OH | 76% | – | – |
| Cbz-Lys(Boc)-Phe-Phe-Phe-OSi(OtBu)3 | – | 90% | – |
| Cbz-MeAla-Cys(Trt)-Ala-Phe-Phe-OSi(tBu)2(Bn) | – | 75% | – |
| Cbz-MePhe-MePhe-MePhe-MePhe-MePhe-OBIBS | – | 93% | – |
| Cbz-MePhe-MePhe-MePhe-MePhe-MePhe-OH | 95% | – | – |
| Cbz-Phe-Phe-Ala-Val-Pro-Phe-OSi(tBu)3 | – | 89% | – |
| Cbz-Phe-Phe-Phe-Phe-Phe-OCHCS | – | – | step yield ([1]; coupling step, 2-Step Yield): 54% |
| Cbz-Phe-Phe-Phe-Phe-Phe-OCPCS | – | – | step yield ([1]; coupling step, 2-Step Yield): 72% |
| Cbz-Phe-Phe-Phe-Phe-Phe-OIPBS | – | – | step yield ([1]; coupling step, 2-Step Yield): 86% |
| Cbz-Phe-Phe-Phe-Phe-Phe-OIPCS | – | – | step yield ([1]; coupling step, 2-Step Yield): 93% |
| Cbz-Phe-Phe-Phe-Phe-Phe-OSBCS | – | – | step yield ([1]; coupling step, 2-Step Yield): 96% |

| Substance | step yield ([1]; late stage modification step) | step yield ([1]; coupling step) | other results |
| --- | --- | --- | --- |
| Cbz-Phe-Phe-Phe-Phe-Phe-OSi(tBu)2(C18H37) | – | 95% | – |
| Cbz-[NMeA]C(Trt)AFF-OH | 100% | – | – |
| Fmoc-Cys(Trt)-Ala-Arg(Ts)-Arg(Ts)-Arg(Ts)-Ala-Arg(Ts)-OBIBS | – | 92% | – |
| Fmoc-Cys(Trt)-Ala-Phe-Phe-OSi(tBu)2(Bn) | – | 90% | – |
| Fmoc-Gly-Asp(OBn)-Phe-Phe-OSi(tBu)2(OCH2CH2Ph) | – | 90% | – |
| Fmoc-Gly-Phe-Phe-Phe-OSi(tBu)2(Ph) | – | 71% | – |
| Fmoc-K(Cbz)GD(OBn)FF-OH | 69% | – | – |
| Fmoc-Lys(Cbz)-Gly-Asp(OBn)-Phe-Phe-OSi(tBu)2(OCH2CH2Ph) | – | 49% | – |
| Fmoc-PAS(Bn)FF-OH | 72% | – | – |
| Fmoc-Phe-Ala-Val-Pro-Phe-OSi(tBu)3 | – | 99% | – |
| Fmoc-Phe-Phe-Phe-Phe-OSi(tBu)2(C18H37) | – | 94% | – |
| Fmoc-Phe-Phe-Phe-Phe-OTIPS | – | 77% | – |
| Fmoc-Pro-Ala-Ser(Bn)-Phe-Phe-OSi(sBu)2(tBu) | – | 100% | – |
| Fmoc-Ser(Bn)-Ala-Phe-Phe-O(t-Bu)Silolane | – | 30% | – |
| H-Ala-Arg(Ts)-Arg(Ts)-Arg(Ts)-Ala-Arg(Ts)-OBIBS | 98% | – | – |
| H-Ala-Ser(Bn)-Phe-Phe-OSi(sBu)2(tBu) | 79% | – | – |
| H-Ala-Val-Pro-Phe-OSi(tBu)3 hydrochloride | 100% | – | – |
| H-Arg(Ts)-Arg(Ts)-Ala-Arg(Ts)-OBIBS | 104% | – | – |
| H-Arg(Ts)-Arg(Ts)-Arg(Ts)-Ala-Arg(Ts)-OBIBS | 95% | – | – |
| H-Cys(Trt)-Ala-Arg(Ts)-Arg(Ts)-Arg(Ts)-Ala-Arg(Ts)-OBIBS | 81% | – | – |
| H-Gly-Asp(OBn)-Phe-Phe-OSi(tBu)2(OCH2CH2Ph) | 49% | – | – |
| H-MePhe-MePhe-MePhe-MePhe-OBIBS | 99% | – | – |
| H-Phe-Ala-Val-Pro-Phe-OSi(tBu)3 | 97% | – | – |
| H-Phe-Phe-Phe-Phe-OSi(tBu)2(C18H37) | 96% | – | – |
| H-Phe-Phe-Phe-Phe-OSi(tBu)2(CH2TMS) | 98% | – | – |
